Test results: the supplement of paper PMC7125110
± gives the standard error. The uncertainty is large for many entries.

B1: glmS ribozyme (parent)
chain: AUAAAAGCGCCAGAACUACAGAAAUGUAGUUGACGAGGAGGAGGUUUAUCGAAUUUUCGGCGGAUGCCUCCAAA

Variants of: B1
Assay: KM; higher = weaker cofactor use; RNA array
Conditions: with glucosamine-6-phosphate
Outline: (§1)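 Sequenced MiSeq chips were the platform: E. coli RNA polymerase transcribed barcoded ribozyme variants on them in situ, and a hybridised Cy3 probe tracked these at 37 °C. After glucosamine-6-phosphate (40 μM to 10 mM) in HEPES/KCl/Mg(OAc)2 buffer was flowed in, tiles were imaged over ~14 h. Signals normalised to baseline and to non-cleaving reference variants were reduced to per-tile medians and fit to one- or two-exponential decays to obtain kobs. kcat and KM were derived through weighted Michaelis–Menten fits across concentrations.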

Variant | KM [µM]
A6C U47A | 6300 ± 770
C11A U31G | 3900 ± 1600
U54C A64U | 984 ± 610
C11G G35A | 151 ± 150
C11U U55G C70G | 128 ± 81
A12G G32U C70U | 1760 ± 1300
G62U C68U | 170 ± 120
C10U U55C | 8450 ± 4700
A6U G41U | 18900 ± 1800
A12U A15U A39C | 910 ± 550
A6U C11G | 1370 ± 460
A6G U47G | 1400 ± 520
A42G C71A | 1010 ± 810
U55A C70G | 63.5 ± 36
U69C C71A | 701 ± 580
A6U C16U | 1970 ± 520
U54A C67U | 3580 ± 2800
A12G G40U | 3740 ± 350
C11A U30G | 6140 ± 920
U45C A53U | 4320 ± 1700
C10U G32U | 360 ± 220
C11U A12U U56C | 2120 ± 1200
A6G A15C | 1700 ± 240

Variant | KM [µM]
U56A G66A | 1560 ± 930
G7A U55A | 34400 ± 4600
G41U A42C | 2750 ± 590
A6U U55G | 23900 ± 14000
G7C A53G | 89 ± 48
A6G A12C | 9740 ± 5000
A6G A12U | 519 ± 280
A12G G41U | 10300 ± 930
A12G A53G | 4470 ± 620
A6U C67G | 285 ± 210
A39U A64C | 3410 ± 1100
G44U U45A | 1820 ± 740
A52U U56G | 5090 ± 2000
A53C G66U | 1770 ± 450
A12C U65A | 2790 ± 570
A52C C71U | 1650 ± 280
A12G A15G | 4550 ± 1800
C50U G59U | 71.2 ± 32
C11U U31A | 2380 ± 1800
G41A A53G | 1200 ± 1100
G43A U55A | 21600 ± 9100
A12C U31G | 2340 ± 410
A53G U54C | 1810 ± 1300

A different layout for some results above:
A6G A12C
  KM [µM]: 9740 ± 5000
A6G A12U
  KM [µM]: 519 ± 280

Variants of: B1
Assay: self-cleavage kobs at 2500 uM GlcN6P; higher = faster cleavage; RNA array
Conditions: with glucosamine-6-phosphate
Outline: as §1

Variant | self-cleavage kobs at 2500 uM GlcN6P [s⁻¹]
A6C U47A | 2.93e-05 ± 1.6e-05
C11U U55G C70G | 0.000141 ± 7.1e-05
A52G C61U C68G | 3.79e-05 ± 1.9e-05
G43A U55A | 3.01e-05 ± 3e-05
A53G U54C | 0.004 ± 0.0032

Variants of: B1
Assay: kcat; higher = faster cleavage; RNA array
Conditions: with glucosamine-6-phosphate
Outline: as §1

Variant | kcat [s⁻¹]
C50A C71A | 1.53e-05 ± 3.9e-06
U54C A64U | 7.19e-05 ± 1e-05
G62U C68U | 1.22e-05 ± 1.2e-06
U49G U69A | 4.14e-05 ± 1.7e-05
A53G C67A | 0.000661 ± 0.0004
U54G U55G | 0.0144 ± 0.014
A42G C71A | 0.00565 ± 0.003
C50U A52G | 1.11e-05 ± 2.8e-06
U55A C70G | 0.000118 ± 1.5e-05
U69C C71A | 0.000722 ± 0.00038
U57G U69C | 1.77e-05 ± 7.2e-06
U54A C67U | 0.00845 ± 0.0047
A39G U47G | 0.00329 ± 0.0028
A53U C70U | 0.00457 ± 0.004
U47A C61A C70G C71U | 1.64e-05 ± 4.7e-06
A42G C50G A64G | 2.35e-05 ± 1.7e-05
U47G C61A | 1.29e-05 ± 9.1e-06
G66A C70G | 0.000217 ± 0.00018
U45C A53U | 0.0028 ± 0.0008

Exported as a markdown table: entries from further up

| Variant | kcat [s⁻¹] |
| --- | --- |
| G62U C68U | 1.22e-05 ± 1.2e-06 |
| A42G C50G A64G | 2.35e-05 ± 1.7e-05 |

The list goes on:

Variant | kcat [s⁻¹]
U56A G66A | 0.00503 ± 0.0023
G41U A42C | 1.89e-05 ± 1.4e-06
C50G G51A G59U C70G | 0.000102 ± 2.5e-05
C58U C68G | 5.58e-05 ± 2.9e-05
G51C C68A | < 1e-05
A39U A64C | 0.000269 ± 4.6e-05
A52G C61U C68G | 6.09e-05 ± 4.1e-05
G44U U45A | 0.000658 ± 0.00016
A52U U56G | 0.000175 ± 4.1e-05
A48G G59A | 5.08e-05 ± 1.8e-05
A53C G66U | 0.000484 ± 6.4e-05
A52C C71U | 1.4e-05 ± 5.1e-07
C50U G59U | < 1e-05
G41A A53G | 0.00248 ± 0.0013
G43A U55A | 0.00026 ± 7.6e-05
C50A C61G C68G | 3.41e-05 ± 1.4e-05
A53G U54C | 0.0163 ± 0.0094
U55A C68U | 0.00418 ± 0.0033

Variants of: B1
Assay: self-cleavage kobs at 160 uM GlcN6P; higher = faster cleavage; RNA array
Conditions: with glucosamine-6-phosphate
Outline: as §1

Variant | self-cleavage kobs at 160 uM GlcN6P [s⁻¹]
C50A C71A | 1.81e-05 ± 1.3e-05
C11A U31G | 2.82e-05 ± 1.6e-05
A53G C67A | 0.000298 ± 0.00015
A6G A12U | 1.58e-05 ± 1.5e-05
G44U U45A | 3.57e-05 ± 2.4e-05

Variants of: B1
Assay: self-cleavage kobs at 640 uM GlcN6P; higher = faster cleavage; RNA array
Conditions: with glucosamine-6-phosphate
Outline: as §1

Variant | self-cleavage kobs at 640 uM GlcN6P [s⁻¹]
U49G U69A | 4.02e-05 ± 2.4e-05
C10U G32U | 2.76e-05 ± 1.6e-05
A6G A15C | 1.86e-05 ± 1.2e-05

Variants of: B1
Assay: self-cleavage kobs at 10000 uM GlcN6P; higher = faster cleavage; RNA array
Conditions: with glucosamine-6-phosphate
Outline: as §1

Variant | self-cleavage kobs at 10000 uM GlcN6P [s⁻¹]
U49G U69A | 2.18e-05 ± 1.5e-05
A6U G41U | 1.7e-05 ± 1.2e-05
G7A U55A | 2.01e-05 ± 1.1e-05
G41U A42C | 1.48e-05 ± 1.1e-05
A48G G59A | 3.55e-05 ± 1.9e-05
A52C C71U | 1.21e-05 ± 7.8e-06

Not a retest: an excerpt of the list.
Variant | self-cleavage kobs at 10000 uM GlcN6P [s⁻¹]
U49G U69A | 2.18e-05 ± 1.5e-05
A6U G41U | 1.7e-05 ± 1.2e-05

Variants of: B1
Assay: self-cleavage kobs at 40 uM GlcN6P; higher = faster cleavage; RNA array
Conditions: with glucosamine-6-phosphate
Outline: as §1

Variant | self-cleavage kobs at 40 uM GlcN6P [s⁻¹]
C50G G51A G59U C70G | 2.96e-05 ± 2.1e-05
C58U C68G | 2.08e-05 ± 1.4e-05
A12G A53G | 1.26e-05 ± 1e-05
A53C G66U | 1.68e-05 ± 1.2e-05
C11U U31A | 1.4e-05 ± 1.3e-05
